Assay results reported in the supplement of paper PMC12067093, “Discovery and optimisation of a covalent ligand for TRIM25 and its application to targeted protein ubiquitination” (Chemical Science, 2025).
The other results are listed elsewhere or left out.

By UniProt entry, the sequences of proteins in these tests, tags left out. Where a name states a change or a piece, a line headed by the entry shows the natural chain unless it says otherwise.
UniProt P28799: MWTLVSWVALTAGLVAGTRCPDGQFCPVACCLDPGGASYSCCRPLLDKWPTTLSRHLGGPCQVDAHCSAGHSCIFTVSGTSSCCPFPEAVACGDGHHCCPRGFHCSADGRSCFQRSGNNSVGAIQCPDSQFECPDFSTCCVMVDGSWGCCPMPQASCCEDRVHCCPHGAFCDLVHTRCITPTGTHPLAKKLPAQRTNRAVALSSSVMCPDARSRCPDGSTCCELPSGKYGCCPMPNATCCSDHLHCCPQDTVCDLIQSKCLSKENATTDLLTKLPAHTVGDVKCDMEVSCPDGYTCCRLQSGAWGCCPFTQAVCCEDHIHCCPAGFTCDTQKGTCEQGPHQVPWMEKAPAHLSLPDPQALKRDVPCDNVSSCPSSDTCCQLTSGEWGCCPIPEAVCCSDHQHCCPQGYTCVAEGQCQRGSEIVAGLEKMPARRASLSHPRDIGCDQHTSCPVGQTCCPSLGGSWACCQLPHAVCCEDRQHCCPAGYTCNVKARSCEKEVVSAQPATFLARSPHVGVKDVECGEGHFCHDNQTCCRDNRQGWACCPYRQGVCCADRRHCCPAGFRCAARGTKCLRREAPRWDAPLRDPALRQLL
UniProt Q86YR5: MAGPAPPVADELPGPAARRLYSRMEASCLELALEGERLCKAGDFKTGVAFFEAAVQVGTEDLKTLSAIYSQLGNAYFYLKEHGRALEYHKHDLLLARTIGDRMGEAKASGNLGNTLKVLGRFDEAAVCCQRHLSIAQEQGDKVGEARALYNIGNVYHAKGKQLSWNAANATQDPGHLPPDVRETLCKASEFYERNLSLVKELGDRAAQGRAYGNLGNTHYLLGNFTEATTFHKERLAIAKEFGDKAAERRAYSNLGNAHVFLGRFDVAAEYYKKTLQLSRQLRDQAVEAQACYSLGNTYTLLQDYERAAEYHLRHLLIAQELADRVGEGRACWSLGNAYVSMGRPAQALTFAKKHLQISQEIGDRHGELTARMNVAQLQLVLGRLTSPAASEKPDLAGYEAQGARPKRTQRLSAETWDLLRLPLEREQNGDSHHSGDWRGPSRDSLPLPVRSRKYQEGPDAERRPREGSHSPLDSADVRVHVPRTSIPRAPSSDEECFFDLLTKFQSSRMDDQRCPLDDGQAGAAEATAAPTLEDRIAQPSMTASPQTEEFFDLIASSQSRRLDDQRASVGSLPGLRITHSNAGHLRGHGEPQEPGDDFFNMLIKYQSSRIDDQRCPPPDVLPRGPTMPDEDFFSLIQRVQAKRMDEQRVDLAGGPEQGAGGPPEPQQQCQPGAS
UniProt P40939: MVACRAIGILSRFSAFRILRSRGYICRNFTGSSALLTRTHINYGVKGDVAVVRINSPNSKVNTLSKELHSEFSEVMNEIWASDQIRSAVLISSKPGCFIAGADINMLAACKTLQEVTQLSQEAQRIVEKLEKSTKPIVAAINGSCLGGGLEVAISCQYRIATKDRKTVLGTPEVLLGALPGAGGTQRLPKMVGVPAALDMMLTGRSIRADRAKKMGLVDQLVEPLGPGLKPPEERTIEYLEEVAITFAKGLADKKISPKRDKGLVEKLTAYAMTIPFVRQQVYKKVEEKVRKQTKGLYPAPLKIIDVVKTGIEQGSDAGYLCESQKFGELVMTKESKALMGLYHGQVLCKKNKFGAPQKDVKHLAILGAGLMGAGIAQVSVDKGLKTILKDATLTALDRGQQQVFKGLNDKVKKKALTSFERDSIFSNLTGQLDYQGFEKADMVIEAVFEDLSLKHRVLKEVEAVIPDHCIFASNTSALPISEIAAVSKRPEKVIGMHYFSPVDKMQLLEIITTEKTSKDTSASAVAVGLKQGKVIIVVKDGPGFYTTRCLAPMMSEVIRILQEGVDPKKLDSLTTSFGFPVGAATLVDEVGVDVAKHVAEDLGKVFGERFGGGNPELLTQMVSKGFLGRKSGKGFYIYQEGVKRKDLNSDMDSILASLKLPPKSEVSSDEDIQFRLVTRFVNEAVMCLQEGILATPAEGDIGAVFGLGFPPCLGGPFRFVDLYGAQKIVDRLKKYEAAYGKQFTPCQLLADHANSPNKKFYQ
UniProt P25098: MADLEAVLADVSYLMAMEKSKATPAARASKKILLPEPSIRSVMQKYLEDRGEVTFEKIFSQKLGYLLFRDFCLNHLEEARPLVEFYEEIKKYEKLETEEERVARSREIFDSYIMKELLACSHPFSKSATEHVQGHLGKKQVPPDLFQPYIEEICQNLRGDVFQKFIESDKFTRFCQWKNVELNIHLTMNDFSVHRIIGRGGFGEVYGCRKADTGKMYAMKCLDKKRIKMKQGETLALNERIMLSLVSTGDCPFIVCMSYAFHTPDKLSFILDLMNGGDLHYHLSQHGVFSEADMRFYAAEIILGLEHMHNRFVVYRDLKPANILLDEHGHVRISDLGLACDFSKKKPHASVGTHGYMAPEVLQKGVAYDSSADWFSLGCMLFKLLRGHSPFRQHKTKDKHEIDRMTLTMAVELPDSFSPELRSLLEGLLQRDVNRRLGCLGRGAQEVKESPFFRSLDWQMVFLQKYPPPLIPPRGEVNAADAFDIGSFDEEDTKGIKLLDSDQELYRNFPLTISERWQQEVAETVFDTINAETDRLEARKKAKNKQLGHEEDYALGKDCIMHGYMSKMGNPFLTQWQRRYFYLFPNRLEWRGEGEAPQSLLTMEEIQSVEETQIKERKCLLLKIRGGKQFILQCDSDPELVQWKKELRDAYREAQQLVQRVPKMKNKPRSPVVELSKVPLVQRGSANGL
UniProt Q9UKN8: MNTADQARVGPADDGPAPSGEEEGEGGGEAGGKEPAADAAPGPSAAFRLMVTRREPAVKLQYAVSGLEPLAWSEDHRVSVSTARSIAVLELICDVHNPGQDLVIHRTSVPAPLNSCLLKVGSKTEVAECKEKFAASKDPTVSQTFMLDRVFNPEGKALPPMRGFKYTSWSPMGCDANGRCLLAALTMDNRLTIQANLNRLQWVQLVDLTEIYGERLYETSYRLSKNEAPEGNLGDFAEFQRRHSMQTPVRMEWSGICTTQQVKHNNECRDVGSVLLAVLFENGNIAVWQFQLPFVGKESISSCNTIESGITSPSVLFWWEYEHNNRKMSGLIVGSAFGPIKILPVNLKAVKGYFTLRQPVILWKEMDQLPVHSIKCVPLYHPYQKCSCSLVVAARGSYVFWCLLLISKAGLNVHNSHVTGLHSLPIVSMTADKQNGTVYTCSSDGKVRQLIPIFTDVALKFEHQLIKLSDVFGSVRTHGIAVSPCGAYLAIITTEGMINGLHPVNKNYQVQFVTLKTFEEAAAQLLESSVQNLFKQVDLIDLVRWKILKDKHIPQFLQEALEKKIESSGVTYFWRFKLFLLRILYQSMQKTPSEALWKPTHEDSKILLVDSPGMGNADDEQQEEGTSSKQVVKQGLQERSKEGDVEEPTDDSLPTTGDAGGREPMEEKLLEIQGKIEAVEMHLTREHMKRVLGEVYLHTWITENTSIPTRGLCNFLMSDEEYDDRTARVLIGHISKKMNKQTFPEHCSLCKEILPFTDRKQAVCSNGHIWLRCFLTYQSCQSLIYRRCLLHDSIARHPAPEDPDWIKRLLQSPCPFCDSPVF
UniProt Q14687: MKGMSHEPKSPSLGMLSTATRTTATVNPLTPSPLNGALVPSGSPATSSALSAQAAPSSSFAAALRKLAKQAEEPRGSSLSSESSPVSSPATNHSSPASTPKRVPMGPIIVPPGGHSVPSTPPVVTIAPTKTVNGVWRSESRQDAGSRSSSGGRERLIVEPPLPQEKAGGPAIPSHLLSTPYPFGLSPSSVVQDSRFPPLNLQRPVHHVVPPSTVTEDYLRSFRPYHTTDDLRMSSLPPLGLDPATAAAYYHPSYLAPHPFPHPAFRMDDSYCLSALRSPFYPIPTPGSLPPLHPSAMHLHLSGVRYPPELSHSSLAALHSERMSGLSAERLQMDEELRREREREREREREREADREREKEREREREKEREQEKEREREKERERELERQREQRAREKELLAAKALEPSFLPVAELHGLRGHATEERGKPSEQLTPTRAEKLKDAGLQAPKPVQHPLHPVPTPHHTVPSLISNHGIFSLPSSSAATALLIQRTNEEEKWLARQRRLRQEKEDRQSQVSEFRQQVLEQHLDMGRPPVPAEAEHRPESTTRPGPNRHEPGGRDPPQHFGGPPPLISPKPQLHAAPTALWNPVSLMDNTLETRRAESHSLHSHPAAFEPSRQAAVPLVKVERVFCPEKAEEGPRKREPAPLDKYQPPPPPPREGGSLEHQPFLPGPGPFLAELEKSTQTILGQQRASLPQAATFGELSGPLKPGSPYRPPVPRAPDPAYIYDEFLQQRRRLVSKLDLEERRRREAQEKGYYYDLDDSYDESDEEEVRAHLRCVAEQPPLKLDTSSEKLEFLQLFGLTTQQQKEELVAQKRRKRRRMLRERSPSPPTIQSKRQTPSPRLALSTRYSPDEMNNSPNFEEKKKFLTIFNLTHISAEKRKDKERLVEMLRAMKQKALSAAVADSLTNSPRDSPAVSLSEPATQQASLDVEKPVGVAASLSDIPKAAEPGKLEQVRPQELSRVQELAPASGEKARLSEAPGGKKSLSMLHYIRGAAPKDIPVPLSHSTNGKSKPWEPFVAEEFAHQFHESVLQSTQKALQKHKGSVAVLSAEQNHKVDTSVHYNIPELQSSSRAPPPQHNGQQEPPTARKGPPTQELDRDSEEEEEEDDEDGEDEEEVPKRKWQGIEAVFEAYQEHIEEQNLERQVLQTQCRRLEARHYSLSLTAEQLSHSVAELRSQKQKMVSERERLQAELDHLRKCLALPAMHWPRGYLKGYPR
UniProt P78347: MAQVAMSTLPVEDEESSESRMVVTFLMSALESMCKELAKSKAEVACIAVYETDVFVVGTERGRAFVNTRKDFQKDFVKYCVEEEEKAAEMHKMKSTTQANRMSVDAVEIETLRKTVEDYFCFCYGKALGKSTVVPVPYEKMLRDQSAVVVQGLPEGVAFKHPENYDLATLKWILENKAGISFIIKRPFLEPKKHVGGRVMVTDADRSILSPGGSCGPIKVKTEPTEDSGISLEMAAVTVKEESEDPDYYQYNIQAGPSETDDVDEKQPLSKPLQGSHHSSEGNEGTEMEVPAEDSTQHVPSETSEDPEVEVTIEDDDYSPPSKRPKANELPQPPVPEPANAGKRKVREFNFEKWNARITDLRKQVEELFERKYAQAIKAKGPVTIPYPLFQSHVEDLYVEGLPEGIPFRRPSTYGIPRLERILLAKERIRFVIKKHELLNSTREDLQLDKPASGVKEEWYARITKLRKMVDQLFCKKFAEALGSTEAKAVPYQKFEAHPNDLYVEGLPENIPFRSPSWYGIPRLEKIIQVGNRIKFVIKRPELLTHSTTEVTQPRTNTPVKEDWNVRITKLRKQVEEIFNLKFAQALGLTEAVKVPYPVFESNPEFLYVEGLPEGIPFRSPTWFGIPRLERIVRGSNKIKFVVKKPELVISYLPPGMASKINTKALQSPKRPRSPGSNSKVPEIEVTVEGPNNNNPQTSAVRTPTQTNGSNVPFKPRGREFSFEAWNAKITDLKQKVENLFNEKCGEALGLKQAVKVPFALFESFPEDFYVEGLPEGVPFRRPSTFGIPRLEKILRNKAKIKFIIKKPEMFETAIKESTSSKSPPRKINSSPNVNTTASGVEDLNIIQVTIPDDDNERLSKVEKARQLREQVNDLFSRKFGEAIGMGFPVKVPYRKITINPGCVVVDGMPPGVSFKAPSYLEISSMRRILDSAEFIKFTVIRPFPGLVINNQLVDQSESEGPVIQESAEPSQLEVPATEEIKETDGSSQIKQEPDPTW
UniProt Q16774: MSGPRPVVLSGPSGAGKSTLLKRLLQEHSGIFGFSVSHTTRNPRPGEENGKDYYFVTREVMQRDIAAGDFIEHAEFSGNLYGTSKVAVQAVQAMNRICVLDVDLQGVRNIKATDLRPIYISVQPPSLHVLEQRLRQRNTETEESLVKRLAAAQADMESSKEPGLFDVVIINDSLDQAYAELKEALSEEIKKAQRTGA
UniProt Q8WW33: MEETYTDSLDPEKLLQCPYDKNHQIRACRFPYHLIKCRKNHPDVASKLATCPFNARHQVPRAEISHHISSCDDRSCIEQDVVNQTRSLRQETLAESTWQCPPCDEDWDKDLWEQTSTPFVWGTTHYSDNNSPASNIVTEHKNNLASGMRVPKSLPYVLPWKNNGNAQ
UniProt Q9BQ67, whole entry, looked up: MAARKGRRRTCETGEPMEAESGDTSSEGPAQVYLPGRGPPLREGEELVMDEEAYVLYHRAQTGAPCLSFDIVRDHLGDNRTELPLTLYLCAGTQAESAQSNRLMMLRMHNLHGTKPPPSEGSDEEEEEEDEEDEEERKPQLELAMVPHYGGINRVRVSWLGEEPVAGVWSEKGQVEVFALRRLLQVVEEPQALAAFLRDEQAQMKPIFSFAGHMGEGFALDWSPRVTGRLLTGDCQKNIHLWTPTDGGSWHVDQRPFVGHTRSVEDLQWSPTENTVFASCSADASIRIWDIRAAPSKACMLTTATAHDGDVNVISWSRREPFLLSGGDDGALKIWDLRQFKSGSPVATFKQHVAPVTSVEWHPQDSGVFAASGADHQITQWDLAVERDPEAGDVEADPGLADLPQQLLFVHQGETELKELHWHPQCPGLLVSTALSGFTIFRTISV

Compound: CC1Cc2ccccc2N1C(=O)C1CCCN(C1)C(=O)CCl (mixture of isomers) [TRIM25 ligand 11 (diastereomer mixture)]
Test: probe-labelled cysteine peptide fold change vs DMSO (competition) (log2 fold change); higher = less target engagement (more negative = stronger competition)
Conditions: THP-1, incubation time: 4 h
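Also: competitive chemoproteomic profiling in live THP-1 cells with an iodoacetamide desthiobiotin (IA-DTB) probe, comparing probe-labelled peptide intensities in compound-treated cells against DMSO-treated controls.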

Target | probe-labelled cysteine peptide fold change (10 µM) | probe-labelled cysteine peptide fold change (50 µM)
GYS1_P13807_214_YLCAGAVDFYNNLENFNVDK (UniProt P13807) | -0.0166 | 0.11
GRN_P28799_543_QGWACCPYR (UniProt P28799) | -0.051 | -0.116
GPSM1_Q86YR5_128_FDEAAVCCQR (UniProt Q86YR5) | -0.109 | -0.0486
GSR_P00390_134_VMWNTAVHSEFMHDHADYGFPSCEGK (UniProt P00390) | 0.144 | 0.00373
GRN_P28799_558_HCCPAGFR (UniProt P28799) | -0.148 | -0.203
HADHA_P40939_349_ALMGLYHGQVLCK (UniProt P40939) | 0.0161 | -0.0845
GRK2_P25098_72_DFCLNHLEEARPLVEFYEEIK (UniProt P25098) | 0.0258 | -0.0695
GSTCD_Q8NEC7_466_IVDFCSGGGHVGIVLAHMLPSCQVTLIENK (UniProt Q8NEC7) | -0.0803 | 0.0627
GTF3C4_Q9UKN8_268_HNNECR (UniProt Q9UKN8) | 0.179 | 0.5
HACE1_Q8IYU2_508_IIFDHFHFLLECPELMSR (UniProt Q8IYU2) | -0.0264 | 0.0704
GSE1_Q14687_777_CVAEQPPLK (UniProt Q14687) | -0.136 | -0.234
GTF3A_Q92664_222_ETHKEEILCEVCR (UniProt Q92664) | -0.0323 | 0.00437
GSTM1_P09488_78_ITQSNAILCYIAR (UniProt P09488) | 0.021 | 0.0511
GSTM3_P21266_208_IAAYLQSDQFCK (UniProt P21266) | 0.415 | 0.274
GTF2I_P78347_903_KITINPGCVVVDGMPPGVSFK (UniProt P78347) | -0.0687 | -0.179
GUK1_Q16774_98_ICVLDVDLQGVR (UniProt Q16774) | 0.183 | 0.127
GTSF1_Q8WW33_76_SCIEQDVVNQTR (UniProt Q8WW33) | -0.0275 | -0.0476
HAT1_O14929_27_CNTNTAIELK (UniProt O14929) | -0.0371 | -0.222
GTF2H4_Q92759_16_VHLQCR (UniProt Q92759) | -0.0652 | -0.00142
HADHA_P40939_550_CLAPMMSEVIR (UniProt P40939) | 0.111 | 0.162
GTF3C2_Q8WUA4_828_MQEGEGHSQLCLDR (UniProt Q8WUA4) | -0.014 | -0.152
HAGHL_Q6PII5_188_VEPCNDHVR (UniProt Q6PII5) | 0.0214 | 0.0203
GTF3C4_Q9UKN8_441_QNGTVYTCSSDGK (UniProt Q9UKN8) | 0.00781 | 0.155
GRWD1_Q9BQ67_235_LLTGDCQK (UniProt Q9BQ67) | -0.0301 | 0.0128

Two entries drawn at random from the list so far, as already listed:
Target | probe-labelled cysteine peptide fold change (10 µM) | probe-labelled cysteine peptide fold change (50 µM)
GTF3C4_Q9UKN8_268_HNNECR (UniProt Q9UKN8) | 0.179 | 0.5
GTF2I_P78347_903_KITINPGCVVVDGMPPGVSFK (UniProt P78347) | -0.0687 | -0.179
